# Laboratory results reported in PubChem BioAssay AID284 (DTP/NCI, 2004).
# The list is a part of this screen's results and no random one: it gathers some chemical classes. Other doses and runs of a compound may be missing. T/C gives the treated animals as a percentage of the vehicle group. Some doses have a count of surviving animals in place of a T/C: the source holds a T/C of zero for them, seemingly a mark for toxic or unscored doses. Some doses without a T/C left all or most animals alive at the check, yet need not have been tolerated: survival well below the control is almost never listed, so the zero probably covers shortened survival too. Survivors were counted at the toxicity check, usually on the fifth day, unless a day is given; later deaths do not show. Schedules are NCI's codes, taken here to give the interval after Q, in days (D) or hours (H), and the number of doses after X. Some schedule codes hold Z or #, which are not explained here. Some entries hold several experiments; the values are given in rising order. For survival time, this PubChem deposit counts one and a half times the control or more as active, and values a quarter to a half above the control carry no call in these data; other NCI protocols may use other cut-offs.
# Tested on: BDF1 mice, L1210/MTX-resistant leukemia ip, survival T/C
# Assay: NCI In Vivo Anticancer Drug Screen. Data for tumor model L1210 Leukemia resistant to Methotrexate; NSC 740 (intraperitoneal) in B6D2F1 (BDF1) mice
# Conditions: T/C endpoint: mean survival time, higher T/C = longer survival
# Protocol: The antitumor activity of compounds was measured in mice bearing transplantable tumors. Survival or tumor size were measured and the results are expressed as the measurement made in the treated group (T) divided by the measurement made in the vehicle treated control group (C). The tumor model used in this assay is L1210 Leukemia resistant to Methotrexate; NSC 740 (intraperitoneal) in B6D2F1 (BDF1) mice
smiles,measurement,setting,value
Cc1[nH]c(=O)[nH]c(=O)c1N(CCCl)CCCl,T/C,"dose: 0.5 mg/kg/injection, schedule: Q01DX010 (ip), vehicle: saline",115 % of control
same,T/C,"dose: 0.5 mg/kg/injection, schedule: Q01DX Z (ip), vehicle: carboxymethylcellulose (CMC)",110 % of control
same,T/C,"dose: 1.0 mg/kg/injection, schedule: Q01DX010 (ip), vehicle: saline",125 % of control
same,T/C,"dose: 1.0 mg/kg/injection, schedule: Q01DX Z (ip), vehicle: carboxymethylcellulose (CMC)",92 % of control
same,T/C,"dose: 2.0 mg/kg/injection, schedule: Q01DX010 (ip), vehicle: saline",117 % of control
same,T/C,"dose: 2.0 mg/kg/injection, schedule: Q01DX Z (ip), vehicle: carboxymethylcellulose (CMC)",89 % of control
same,T/C,"dose: 4.0 mg/kg/injection, schedule: Q01DX010 (ip), vehicle: saline",98 % of control
same,survivor count,"dose: 4.0 mg/kg/injection, schedule: Q01DX Z (ip), vehicle: carboxymethylcellulose (CMC)",5 of 6
CN(N=O)C(=N)N[N+](=O)[O-],T/C,"dose: 8.0 mg/kg/injection, schedule: Q01DX010 (ip), vehicle: saline",105 and 120 % of control
same,T/C,"dose: 16.0 mg/kg/injection, schedule: Q01DX010 (ip), vehicle: saline",99 and 134 % of control
same,survivor count,"dose: 32.0 mg/kg/injection, schedule: Q01DX010 (ip), vehicle: saline",6 of 6
same,survivor count,"dose: 64.0 mg/kg/injection, schedule: Q01DX010 (ip), vehicle: saline",2 of 6 and 5 of 6
